Measurements reported in paper doi:10.1101/2025.09.05.674519.
No constants are given. Whether binding was seen depends on the method and setting. Some entries that bind do so weakly or less than the wild type.

Biological target: ULK2 kinase domain (1-276) (UniProt Q8IYT8)
Test: crystal structure

binding: binds
B1: ULK2 kinase domain (1-276) (domain or fragment, UniProt Q8IYT8 1-276)
chain: MEVVGDFEYSKRDLVGHGAFAVVFRGRHRQKTDWEVAIKSINKKNLSKSQILLGKEIKILKELQHENIVALYDVQELPNSVFLVMEYCNGGDLADYLQAKGTLSEDTIRVFLHQIAAAMRILHSKGIIHRDLKPQNILLSYANRRKSSVSGIRIKIADFGFARYLHSNMMAATLCGSPMYMAPEVIMSQHYDAKADLWSIGTVIYQCLVGKPPFQANSPQDLRMFYEKNRSLMPSIPRETSPYLANLLLGLLQRNQKDRMDFEAFFSHPFLEQGPV
